# Data taken from the supplement of paper PMC12067093, “Discovery and optimisation of a covalent ligand for TRIM25 and its application to targeted protein ubiquitination” (Chemical Science, 2025).
# The other results are listed elsewhere or left out.
# Compound: Cc1cc(ccc1-c1ccccc1)C(=O)N1CCCN(CC1)C(=O)CCl [compound 10]
# Test: probe-labelled cysteine peptide fold change vs DMSO (competition) (log2 fold change); higher = less target engagement (more negative = stronger competition)
# Conditions: THP-1, incubation time: 4 h
# 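Note: competitive profiling in live THP-1 cells: cysteine peptides tagged with an iodoacetamide desthiobiotin (IA-DTB) probe, intensity after compound treatment relative to DMSO-treated cells.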
Target,probe-labelled cysteine peptide fold change (10 µM),probe-labelled cysteine peptide fold change (50 µM)
MKLN1_Q9UL63_460_IGHCMLFHSK (UniProt Q9UL63),-0.16,0.113
MIS18A_Q9NYP9_107_RPLGDSLSWVASQEDTNCILLR (UniProt Q9NYP9),0.065,-0.042
MNAT1_P51948_293_AASPQDLAGGYTSSLACHR (UniProt P51948),-0.136,-0.61
MLLT1_Q03111_42_GPEQCDIQHFVEK (UniProt Q03111),-0.0669,0.316
MMP14_P50281_574_RLLYCQR (UniProt P50281),-0.276,-0.518
MRPL18_Q9H0U6_125_NVVACESIGR (UniProt Q9H0U6),-0.152,0.104
MITD1_Q8WV92_226_FSLGYCDFDLRPCHETTVDIFHK (UniProt Q8WV92),0.0984,0.0591
MPST_P25325_7_ASPQLCR (UniProt P25325),-0.141,-0.0522
MICAL3_Q7RTP6_1760_SCPSTPSSGATVDSGK (UniProt Q7RTP6),-0.0357,-0.153
MORC3_Q14149_694_SADDAGCQLQELR (UniProt Q14149),-0.31,-0.19
MKI67_P46013_1285_ADVEGELLACR (UniProt P46013),-0.247,-0.0599
MIB2_Q96AX9_969_ITCPICIDSHIR (UniProt Q96AX9),-0.0329,0.256
MRI1_Q9BV20_285_HHGIPFYVAAPSSSCDLR (UniProt Q9BV20),0.0336,-0.0315
MLH1_P40692_77_KEDLDIVCER (UniProt P40692),-0.0728,0.206
MMTAG2_Q9BU76_58_APCAGPSREEELAAVR (UniProt Q9BU76),-0.197,-0.518
MPG_P29372_215_DRELCSGPSK (UniProt P29372),-0.0933,-0.129
MINDY2_Q8NBR6_79_SLPDSASPAGSPEVPGPCSSSAGLDLK (UniProt Q8NBR6),-0.334,-0.1
MICAL2_O94851_1059_PHFIHCK (UniProt O94851),-0.142,-0.506
MMS19_Q96T76_750_ELLELSCCHSCPFSSTAAAK (UniProt Q96T76),-0.103,-1.11
MORF4L2_Q15014_165_NVDAILEEYANCKK (UniProt Q15014),-0.218,0.0129
MMS19_Q96T76_977_IAALQCMHALTR (UniProt Q96T76),0.124,-0.0295
MPC1_Q9Y5U8_83_NWLLFACHATNEVAQLIQGGR (UniProt Q9Y5U8),0.127,0.0761

Target,probe-labelled cysteine peptide fold change (10 µM),probe-labelled cysteine peptide fold change (50 µM)
MILR1_Q7Z6M3_329_EQEACDSYK (UniProt Q7Z6M3),-0.341,-0.818
MICAL2_O94851_552_SGLALCAIIHR (UniProt O94851),0.0476,0.0623
MRGBP_Q9NV56_38_GPGEAATSPAEETVVWSPEVEVCLFHAMLGHKPVGVNR (UniProt Q9NV56),-0.087,-0.05
MRPS16_Q9Y3D3_26_LALGGCTNRPFYR (UniProt Q9Y3D3),-0.596,0.0119
MINK1_Q8N4C8_269_KFIDFIDTCLIK (UniProt Q8N4C8),-0.0555,-0.0905
MKI67_P46013_715_KPVGEVHSQFSTGHANSPCTIIIGK (UniProt P46013),0.206,-0.245
MKI67_P46013_903_SEETNTEIVECILK (UniProt P46013),-0.0329,-0.41
MOB4_Q9Y3A3_188_QIFDEYENETFLCHR (UniProt Q9Y3A3),0.126,0.217
MLLT10_P55197_140_TCYICDEQGR (UniProt P55197),-0.419,-0.305
MICALL1_Q8N3F8_194_CSSTLLPGAYENGPEEGTFVCAEHCAR (UniProt Q8N3F8),-0.0852,-1.04
MKLN1_Q9UL63_446_LLREDSCNAGPEDIQSR (UniProt Q9UL63),0.078,0.0488
MPST_P25325_65_HIPGAAFFDIDQCSDR (UniProt P25325),-0.0705,-0.0542
MOCS2_O96033_5_MVPLCQVEVLYFAK (UniProt O96033),0.0694,0.0346
MRPL53_Q96EL3_63_HDGSEPCVDVLFGDGHR (UniProt Q96EL3),0.231,0.167
MORC3_Q14149_744_ETCHQSTETDAVFLLESINGK (UniProt Q14149),0.114,-0.149
MRPS11_P82912_186_LSAMHGLIMGGLEVISITDNTPIPHNGCRPR (UniProt P82912),0.35,0.555
MRPL37_Q9BZE1_203_ICVQNSTFSATWNR (UniProt Q9BZE1),-0.0553,-0.0108
MMAA_Q8IVH4_100_ACLAEAITLVESTHSR (UniProt Q8IVH4),-0.0292,0.0665
MMADHC_Q9H3L0_148_VECAIQTCPELLRK (UniProt Q9H3L0),-0.33,-0.718
MKI67_P46013_3229_CAENPK (UniProt P46013),-0.441,-0.0742
MRI1_Q9BV20_199_LEHAFCTETRPYNQGAR (UniProt Q9BV20),-0.0624,-0.0425
MMP14_P50281_127_WQHNEITFCIQNYTPK (UniProt P50281),0.0208,0.0803

# Shown as tab-separated lines: part of the list above.
Target	probe-labelled cysteine peptide fold change (10 µM)	probe-labelled cysteine peptide fold change (50 µM)
MICALL1_Q8N3F8_194_CSSTLLPGAYENGPEEGTFVCAEHCAR (UniProt Q8N3F8)	-0.0852	-1.04
MKLN1_Q9UL63_446_LLREDSCNAGPEDIQSR (UniProt Q9UL63)	0.078	0.0488
MPST_P25325_65_HIPGAAFFDIDQCSDR (UniProt P25325)	-0.0705	-0.0542
MOCS2_O96033_5_MVPLCQVEVLYFAK (UniProt O96033)	0.0694	0.0346

# (further entries)

Target,probe-labelled cysteine peptide fold change (10 µM),probe-labelled cysteine peptide fold change (50 µM)
MORC2_Q9Y6X9_387_DLDGMFIYNCSR (UniProt Q9Y6X9),0.0728,0.167
MKI67_P46013_1251_IPCDSPQSDPVDTPTSTK (UniProt P46013),-0.124,-0.547
MRC2_Q9UBG0_532_GWTWHSPSCYWLGEDQVTYSEAR (UniProt Q9UBG0),-0.0596,-0.127
MICAL1_Q8TDZ2_87_CLVVGAGPCGLR (UniProt Q8TDZ2),0.0835,0.45
MON2_Q7Z3U7_1033_LGELCVDPR (UniProt Q7Z3U7),-0.0636,-0.0416
MORC3_Q14149_62_TVINDHICLTFTDNGNGMTSDK (UniProt Q14149),0.141,0.167
MRPL37_Q9BZE1_104_DQACYIFHHR (UniProt Q9BZE1),0.0327,-0.253
MOB4_Q9Y3A3_78_QFCLELNGLAVK (UniProt Q9Y3A3),0.0886,0.236
MKI67_P46013_1981_ITEVSCK (UniProt P46013),-0.217,-0.252
MRC2_Q9UBG0_213_EDGHLWCATTQDYGKDER (UniProt Q9UBG0),-0.11,-1.01
MRPL37_Q9BZE1_366_VFHFLVFQLNTTDLDCNEGVK (UniProt Q9BZE1),-0.346,0.0138
MPC2_O95563_54_WGLVCAGLADMAR (UniProt O95563),0.00495,-0.386
MIS18A_Q9NYP9_231_LSFATCK (UniProt Q9NYP9),-0.214,-0.293
MORC3_Q14149_797+800_AECSQCSNNESK (UniProt Q14149),0.154,-0.173
MRPL37_Q9BZE1_268_NHVLETFYPISPIIDLHECNIYDVK (UniProt Q9BZE1),-0.0744,-0.045
MRPL21_Q7Z2W9_203_INSIEIAPCLL (UniProt Q7Z2W9),0.277,-0.0731
MRC2_Q9UBG0_521_AGQLSQGAAEEDHGCRK (UniProt Q9UBG0),-0.292,-0.516
MRI1_Q9BV20_168_VTVLTHCNTGALATAGYGTALGVIR (UniProt Q9BV20),0.147,0.0771
MMS19_Q96T76_502_EDSQSCR (UniProt Q96T76),-0.00531,-0.404
MKLN1_Q9UL63_82_THVCNLKK (UniProt Q9UL63),-0.144,-0.776
MORC3_Q14149_787_QCSALQHVK (UniProt Q14149),-0.202,-0.0601
MRC2_Q9UBG0_351_DCSIALPYVCK (UniProt Q9UBG0),-0.101,-0.523

Target,probe-labelled cysteine peptide fold change (10 µM),probe-labelled cysteine peptide fold change (50 µM)
MOCOS_Q96EN8_635_LCLIQPFIDLR (UniProt Q96EN8),-0.00412,-0.0451
MPRIP_Q6WCQ1_724_EGYVLQATCER (UniProt Q6WCQ1),-0.232,-0.225
MNDA_P41218_274_VITISDYSECK (UniProt P41218),-0.0501,0.0321
MOCS3_O95396_179_YDVVADCSDNVPTR (UniProt O95396),-0.0297,0.178
MINDY1_Q8N5J2_94_ACSMPQELPQSPR (UniProt Q8N5J2),-0.63,-0.582
MRC2_Q9UBG0_521_AGQLSQGAAEEDHGCR (UniProt Q9UBG0),-0.386,-0.728
MPI_P34949_289_GDCVECMACSDNTVR (UniProt P34949),0.0622,-0.0489
MPP6_Q9NZW5_222_CHFDYNPYNDNLIPCK (UniProt Q9NZW5),0.21,-0.0199
MRPL32_Q9BYC8_110+113_NNIDVCPECGHLK (UniProt Q9BYC8),-0.0295,0.176
MPRIP_Q6WCQ1_831_CLENAHLAQALEAER (UniProt Q6WCQ1),-0.00756,0.046
MIS18BP1_Q6P0N0_918_SPEECQR (UniProt Q6P0N0),0.443,0.316
MRGBP_Q9NV56_170_NSSDLGCK (UniProt Q9NV56),0.169,-0.229
MRE11_P49959_249_HGSTNFIPEQFLDDFIDLVIWGHEHECK (UniProt P49959),0.0264,0.203
MORC3_Q14149_255_AYCSILYLK (UniProt Q14149),-0.0815,0.456
MIF_P14174_81_LLCGLLAER (UniProt P14174),0.142,-0.0471
MLH1_P40692_77_EDLDIVCER (UniProt P40692),-0.221,0.348
MRNIP_Q6NTE8_300_ATHPVTSGSERPCGK (UniProt Q6NTE8),-0.175,-0.334
MMS19_Q96T76_331_REVFQTASERVEAEGLAALHSLTACLSR (UniProt Q96T76),-0.452,0.0397
MRPL27_Q9P0M9_88_CLYALEEGIVR (UniProt Q9P0M9),0.11,0.0987
